Experimental data from US7235548B2, “Compounds and their use as positive AMPA receptor modulators” (NeuroSearch A/S, priority 1998, dated 2007).
Some of these results come from one statement about several compounds together.

Tested on: AMPA receptors
Experiment: AMPA evoked single neuron spike activity in rat hippocampus (iontophoretic application of AMPA), in vivo
Conditions: 10 mg kg^−1 i.v.
Text: Evaluation of the in vivo effects of positive AMPA modulators (PAMs) on the AMPA evoked spike activity in rat hippocampus. Hippocampal single neuron spike activity is strongly influenced by excitatory input, and iontophoretic application of AMPA induces spike activity in vivo in a dose-dependent manner ([…] et al. 1998). […] PAMs potentate AMPA receptor activation in vitro, and if this mechanism also operates in vivo, the i.v. injection of an PAM should enhance AMPA evoked spike activity. Thus, the aim of this study was to test the in vivo effect of a group of in vitro active PAMs. This have been done by studying their ability to enhances AMPA evoked spike activity after i.v. administration. Experiments were performed on male Wistar rats (M & B, Denmark) weighing 280-380 g, housed in two per cage with free access to food and water. […] Additional anaesthetic was given i.v. if the rat responded to a pinch of the back foot. […] Evoked neuronal spike activity was analyzed on-line by a computer, saving single spikes and time of event. Neuronal spike activity (number of action potentials s^-1) was monitored on a pulse rate histogram together with indicators for AMPA, COMPOUND 61 and vehicle application. […] The computer program also recorded mean arterial blood pressure and monitored and controlled iontophoretic application. […]

Cc1cc2c(cc1S(=O)(=O)N1CCOCC1)S(=O)(=O)NC(C1CCCCC1)N2 (stereo not shown) [Compound 115, 3-Cyclohexyl-6-methyl-7-morpholinosulfonyl-1,2,3,4-tetrahydro-1,2,4-benzothiadiazine-1,1-dioxide]
duration of the effect: more than 2 hours
